# Values quoted from earlier work, collected in patent US11644460B2, “Identifying new therapeutic agents” (Revolution Medicines, Inc., priority 2010, dated 2023).
# Amino acid sequences for entries named in this document (tags omitted). A change or cut given only in a name is not applied to a line headed by its entry. Residues count along the entry.
# UniProt P68106: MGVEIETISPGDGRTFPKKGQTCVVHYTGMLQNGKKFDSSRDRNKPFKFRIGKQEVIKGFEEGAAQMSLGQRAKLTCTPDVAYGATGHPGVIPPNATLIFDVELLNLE
# UniProt Q96AY3, 27-582: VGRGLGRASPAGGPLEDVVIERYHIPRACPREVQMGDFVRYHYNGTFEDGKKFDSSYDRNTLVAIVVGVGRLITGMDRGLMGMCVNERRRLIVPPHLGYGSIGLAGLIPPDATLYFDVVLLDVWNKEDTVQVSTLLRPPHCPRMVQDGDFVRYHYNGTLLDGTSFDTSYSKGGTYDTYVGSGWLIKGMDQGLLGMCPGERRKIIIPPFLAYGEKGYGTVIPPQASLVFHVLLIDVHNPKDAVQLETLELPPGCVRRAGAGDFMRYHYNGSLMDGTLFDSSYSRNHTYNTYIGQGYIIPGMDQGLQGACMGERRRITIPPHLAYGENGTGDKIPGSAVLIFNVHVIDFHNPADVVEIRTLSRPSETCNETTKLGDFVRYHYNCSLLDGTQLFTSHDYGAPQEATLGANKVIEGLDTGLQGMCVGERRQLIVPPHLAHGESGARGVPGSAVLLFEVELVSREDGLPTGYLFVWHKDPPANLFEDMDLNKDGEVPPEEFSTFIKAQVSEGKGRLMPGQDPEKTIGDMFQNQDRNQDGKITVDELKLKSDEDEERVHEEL
# UniProt Q14318: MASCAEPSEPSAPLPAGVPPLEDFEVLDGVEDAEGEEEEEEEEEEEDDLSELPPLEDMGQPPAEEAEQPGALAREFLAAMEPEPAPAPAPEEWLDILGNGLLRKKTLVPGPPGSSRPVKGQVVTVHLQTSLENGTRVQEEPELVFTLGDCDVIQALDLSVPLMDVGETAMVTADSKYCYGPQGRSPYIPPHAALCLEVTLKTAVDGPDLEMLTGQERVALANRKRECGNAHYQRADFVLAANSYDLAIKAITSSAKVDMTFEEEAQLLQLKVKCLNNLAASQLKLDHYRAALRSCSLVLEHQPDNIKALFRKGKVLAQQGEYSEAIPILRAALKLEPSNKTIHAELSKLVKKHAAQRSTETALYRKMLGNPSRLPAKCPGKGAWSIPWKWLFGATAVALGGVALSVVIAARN
# For at least one compound, name, drawing or mass did not settle the structure.
# Columns and labels:
# [1] = biological target: FKBP12.6 (Homo sapiens, UniProt P68106)
# [2] = biological target: T1, FKBP13 (Homo sapiens, UniProt P26885)
# T1 sequence (P26885 22-142): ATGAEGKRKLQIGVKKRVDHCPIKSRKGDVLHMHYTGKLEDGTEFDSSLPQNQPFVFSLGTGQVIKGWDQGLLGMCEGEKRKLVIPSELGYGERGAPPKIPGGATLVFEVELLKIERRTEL
# [3] = biological target: T2, FKBP19 (Homo sapiens, UniProt Q9NYL4); settings: result in words
# T2 sequence (Q9NYL4 28-201): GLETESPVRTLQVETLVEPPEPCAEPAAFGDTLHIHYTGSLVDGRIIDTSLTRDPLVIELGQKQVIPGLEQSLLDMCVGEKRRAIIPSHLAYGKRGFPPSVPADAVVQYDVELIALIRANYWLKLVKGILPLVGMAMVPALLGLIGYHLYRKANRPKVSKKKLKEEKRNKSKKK
# [4] = biological target: T3, FKBP25 (Homo sapiens, UniProt Q00688)
# T3 sequence (Q00688 1-224): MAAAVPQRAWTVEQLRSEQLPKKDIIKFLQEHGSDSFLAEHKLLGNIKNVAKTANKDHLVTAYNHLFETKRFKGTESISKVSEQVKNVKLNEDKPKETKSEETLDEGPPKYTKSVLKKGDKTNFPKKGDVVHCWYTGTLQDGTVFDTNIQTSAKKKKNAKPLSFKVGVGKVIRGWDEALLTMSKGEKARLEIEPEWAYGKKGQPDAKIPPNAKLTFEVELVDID
# [5] = biological target: T4, FKBP36 (Homo sapiens, UniProt O75344)
# T4 sequence (O75344 1-327): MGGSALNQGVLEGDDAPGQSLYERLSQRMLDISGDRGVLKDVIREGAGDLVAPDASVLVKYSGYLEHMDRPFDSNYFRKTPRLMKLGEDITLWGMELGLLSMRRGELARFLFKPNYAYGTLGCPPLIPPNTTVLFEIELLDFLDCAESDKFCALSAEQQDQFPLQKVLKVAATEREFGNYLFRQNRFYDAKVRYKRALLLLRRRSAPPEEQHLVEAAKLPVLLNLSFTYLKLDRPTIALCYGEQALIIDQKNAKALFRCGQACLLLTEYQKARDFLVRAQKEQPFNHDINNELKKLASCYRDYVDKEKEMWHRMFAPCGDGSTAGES
# [6] = biological target: T5, FKBP52 (Homo sapiens, UniProt Q02790)
# T5 sequence (Q02790 1-459): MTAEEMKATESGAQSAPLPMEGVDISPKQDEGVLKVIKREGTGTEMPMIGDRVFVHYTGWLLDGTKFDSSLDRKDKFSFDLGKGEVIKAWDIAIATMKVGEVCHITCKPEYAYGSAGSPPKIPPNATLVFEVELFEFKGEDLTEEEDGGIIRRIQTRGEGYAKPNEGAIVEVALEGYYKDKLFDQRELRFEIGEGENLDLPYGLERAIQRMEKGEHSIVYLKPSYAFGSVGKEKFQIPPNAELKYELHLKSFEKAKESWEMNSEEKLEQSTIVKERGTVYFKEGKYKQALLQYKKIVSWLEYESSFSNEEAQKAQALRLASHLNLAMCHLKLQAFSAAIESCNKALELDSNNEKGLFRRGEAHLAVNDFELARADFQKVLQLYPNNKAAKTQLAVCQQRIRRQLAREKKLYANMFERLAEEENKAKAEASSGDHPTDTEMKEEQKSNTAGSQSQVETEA
# [7] = biological target: FKBP65 (Homo sapiens, UniProt Q96AY3)
# [8] = biological target: FKBP38 (Homo sapiens, UniProt Q14318)
# [9] = biological target: T6, FKBP51 (Homo sapiens, UniProt Q13451)
# T6 sequence (Q13451 1-457): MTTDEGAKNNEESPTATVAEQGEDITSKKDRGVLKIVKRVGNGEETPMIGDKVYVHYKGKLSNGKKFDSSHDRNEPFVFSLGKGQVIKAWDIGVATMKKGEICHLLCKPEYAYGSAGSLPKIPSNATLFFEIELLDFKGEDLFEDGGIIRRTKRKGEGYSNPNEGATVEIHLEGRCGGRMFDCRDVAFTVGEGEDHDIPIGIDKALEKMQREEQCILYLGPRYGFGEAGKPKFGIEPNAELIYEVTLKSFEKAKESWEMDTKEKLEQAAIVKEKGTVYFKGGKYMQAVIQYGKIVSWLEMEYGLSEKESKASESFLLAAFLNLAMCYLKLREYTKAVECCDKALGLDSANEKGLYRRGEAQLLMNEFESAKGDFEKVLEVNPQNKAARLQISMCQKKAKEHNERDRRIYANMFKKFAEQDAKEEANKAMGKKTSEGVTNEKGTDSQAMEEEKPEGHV
compound,measurement,setting,value
C=CC[C@@H]1/C=C(\C)C[C@H](C)C[C@H](OC)[C@H]2O[C@@](O)(C(=O)C(=O)N3CCCC[C@H]3C(=O)O[C@H](/C(C)=C/[C@@H]3CC[C@@H](O)[C@H](OC)C3)[C@H](C)[C@@H](O)CC1=O)[C@H](C)C[C@@H]2OC [FK506],FK506 Inhibition,[1],0.4 nM
same,FK506 Inhibition,[2],55 nM
same,FK506 Inhibition,[3],“weak”
same,FK506 Inhibition,[4],160 nM
same,FK506 Inhibition,[5],400 nM
same,FK506 Inhibition,[6],1 nM
same,FK506 Inhibition,[7],45 nM
CO[C@H]1C[C@@H]2CC[C@@H](C)[C@@](O)(O2)C(=O)C(=O)N2CCCC[C@H]2C(=O)O[C@H]([C@H](C)C[C@@H]2CC[C@@H](O)[C@H](OC)C2)CC(=O)[C@H](C)/C=C(\C)[C@@H](O)[C@@H](OC)C(=O)[C@H](C)C[C@H](C)/C=C/C=C/C=C/1C [Rapamycin],Rapamycin Inhibition,[5]; two values given,50 nM
same,Rapamycin Inhibition,[8],500 nM
same,Rapamycin Inhibition,[9],14.7 nM
